Results taken from article PMC10667839.
Construct, isoform or probe ends are uncertain for at least one entry. At least one verdict was read from the data and is not stated in words by the source.

Chains of the proteins cited; added tags and fusions are not shown.
UniProt O60264, whole entry: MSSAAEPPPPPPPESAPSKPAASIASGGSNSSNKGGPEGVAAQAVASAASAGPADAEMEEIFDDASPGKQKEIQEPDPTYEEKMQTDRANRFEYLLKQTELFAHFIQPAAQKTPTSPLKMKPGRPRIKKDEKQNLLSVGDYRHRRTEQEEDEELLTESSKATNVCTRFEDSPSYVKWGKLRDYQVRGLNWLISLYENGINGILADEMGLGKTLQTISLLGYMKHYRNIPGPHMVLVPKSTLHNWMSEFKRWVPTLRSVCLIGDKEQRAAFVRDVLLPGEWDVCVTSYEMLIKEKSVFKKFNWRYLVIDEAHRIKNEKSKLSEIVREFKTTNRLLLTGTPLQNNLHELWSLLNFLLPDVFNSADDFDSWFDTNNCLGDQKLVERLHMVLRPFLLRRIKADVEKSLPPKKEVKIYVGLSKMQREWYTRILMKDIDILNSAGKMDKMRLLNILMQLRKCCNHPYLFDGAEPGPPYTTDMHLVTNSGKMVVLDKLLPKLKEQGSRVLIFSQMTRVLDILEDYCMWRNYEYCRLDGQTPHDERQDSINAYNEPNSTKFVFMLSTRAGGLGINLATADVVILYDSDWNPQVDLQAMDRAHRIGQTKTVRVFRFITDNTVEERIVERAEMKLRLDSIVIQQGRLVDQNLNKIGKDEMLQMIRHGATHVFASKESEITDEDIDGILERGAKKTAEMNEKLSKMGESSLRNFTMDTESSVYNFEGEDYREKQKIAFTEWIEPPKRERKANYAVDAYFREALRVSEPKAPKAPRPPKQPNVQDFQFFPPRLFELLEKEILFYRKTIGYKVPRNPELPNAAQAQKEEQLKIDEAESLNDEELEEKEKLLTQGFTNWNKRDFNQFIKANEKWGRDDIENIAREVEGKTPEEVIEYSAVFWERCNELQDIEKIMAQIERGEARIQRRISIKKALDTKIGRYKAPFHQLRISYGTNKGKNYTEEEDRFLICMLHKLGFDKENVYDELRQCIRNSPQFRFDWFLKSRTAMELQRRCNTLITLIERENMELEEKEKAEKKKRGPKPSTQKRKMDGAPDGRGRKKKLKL

Target: SMARCA5 (UniProt O60264)
Assay: EMSA
Conditions: 20 fmol probe, 1 ug protein; biotin (position not given); LightShift Chemiluminescent EMSA kit (Pierce), manufacturer's protocol; room temperature 20 min; native 8% PAGE; salt and pH not stated; recombinant protein; label: biotin

“CAGGCAAGAGGGAAAAGCAGGTGCAAAGGCCCTGAGGTGGGTGTATCTGAGGTGCAAGAG (double strand) [biotin DNA-probe (SMARCA5 target DNA)]”: binds.
